According to publication PMC12306736 (PLOS Genetics, 2025):
Where two headings read alike, the source gives them in different places.

Experiments:
[1] = system: B. ovis; assay: microbe, parasite or virus in culture; format: cell-based; settings: Brucella ovis, THP-1, read-out: Intracellular IC50
[2] = system: B. ovis; assay: microbe, parasite or virus in culture; format: cell-based; settings: Brucella ovis, read-out: Axenic IC50

O=C1CCc2ccc(OCCCCN3CCN(c4cccc(Cl)c4Cl)CC3)cc2N1 [Aripiprazole]
IC50 [1]: 4 µM | IC50 [2]: > 50 µM
